PubChem BioAssay AID504764 | Drosophila RNAi Screening Center | 2011

Test: 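Genome-wide screen for regulators of Notch-driven gene expression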 (primary screen)
Cell system: Drosophila Kc167 cells
Reagents: long dsRNA against Drosophila genes
Time to read-out: about 5 days (4 days dsRNA, then 24 h after transfection)
Challenge: transfection of constitutively active membrane-tethered Notch lacking the extracellular domain, read 24 h later
Detection: 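Firefly luciferase from an E(spl)m3 reporter with active Notch, plus control-promoter and uninduced reporter wells for normalisation; unnormalised counts, duplicate wells a and b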
Scale: induced reporter light, run 1, well a and induced reporter light, run 1, well b: higher = more light from the Notch target reporter with active Notch; control promoter light, run 1, well a and control promoter light, run 1, well b: higher = more light from the viral control promoter (cell number, transfection, viability); uninduced reporter light, run 1, well a: higher = more light from the Notch target reporter without active Notch
Hit rule: 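Wells with low control signal or poorly matching duplicates excluded; duplicates averaged; per source plate, z beyond ±2 for induced/control log2 ratio or beyond ±1.8 for induced/uninduced marks a hit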
Meaning of the calls: active = modifier hit (raised or lowered Notch signal); inactive = not a hit
In all, the deposit lists about 22,000 reagents; below is an unselected part of those that have a named target and a result. Of all reagents, 403 (1.9%) are marked active. 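Unnormalised raw counts per well; ratio z-scores behind the hit calls and whether each hit raises or lowers signal are not deposited.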 Entries without a mark were called inactive. Not stated in the record: the amount of reagent.

{"gene": "Lsp1alpha", "induced reporter light, run 1, well a": 48235, "induced reporter light, run 1, well b": 41495, "control promoter light, run 1, well a": 52775, "control promoter light, run 1, well b": 38125, "uninduced reporter light, run 1, well a": 3465}
{"gene": "CG7997", "induced reporter light, run 1, well a": 1.21e5, "induced reporter light, run 1, well b": 1.13e5, "control promoter light, run 1, well a": 2.09e5, "control promoter light, run 1, well b": 1.98e5, "uninduced reporter light, run 1, well a": 8960}
{"gene": "CG7222", "induced reporter light, run 1, well a": 1.55e5, "induced reporter light, run 1, well b": 1.40e5, "control promoter light, run 1, well a": 1.33e5, "control promoter light, run 1, well b": 1.45e5, "uninduced reporter light, run 1, well a": 11665}
{"gene": "CG14708", "induced reporter light, run 1, well a": 1.64e5, "induced reporter light, run 1, well b": 1.56e5, "control promoter light, run 1, well a": 1.73e5, "control promoter light, run 1, well b": 1.53e5, "uninduced reporter light, run 1, well a": 7755}
{"gene": "UQCR-6.4", "induced reporter light, run 1, well a": 61495, "induced reporter light, run 1, well b": 54330, "control promoter light, run 1, well a": 67465, "control promoter light, run 1, well b": 92550, "uninduced reporter light, run 1, well a": 7715}
{"gene": "Dad", "induced reporter light, run 1, well a": 2.35e5, "induced reporter light, run 1, well b": 2.58e5, "control promoter light, run 1, well a": 3.12e5, "control promoter light, run 1, well b": 3.62e5, "uninduced reporter light, run 1, well a": 19285}
{"gene": "tRNA:Leu-CAA-2-3", "induced reporter light, run 1, well a": 1.81e5, "induced reporter light, run 1, well b": 1.69e5, "control promoter light, run 1, well a": 1.81e5, "control promoter light, run 1, well b": 1.79e5, "uninduced reporter light, run 1, well a": 15982}
{"gene": "Mlc1", "induced reporter light, run 1, well a": 1.07e5, "induced reporter light, run 1, well b": 83535, "control promoter light, run 1, well a": 2.03e5, "control promoter light, run 1, well b": 1.54e5, "uninduced reporter light, run 1, well a": 9970}
{"gene": "CR33319", "induced reporter light, run 1, well a": 97115, "induced reporter light, run 1, well b": 92370, "control promoter light, run 1, well a": 93555, "control promoter light, run 1, well b": 1.28e5, "uninduced reporter light, run 1, well a": 10315}
{"gene": "NK7.1", "induced reporter light, run 1, well a": 55560, "induced reporter light, run 1, well b": 57340, "control promoter light, run 1, well a": 34900, "control promoter light, run 1, well b": 32835, "uninduced reporter light, run 1, well a": 8375}
{"gene": "rt", "induced reporter light, run 1, well a": 1.10e5, "induced reporter light, run 1, well b": 1.05e5, "control promoter light, run 1, well a": 1.86e5, "control promoter light, run 1, well b": 1.41e5, "uninduced reporter light, run 1, well a": 7040}
{"gene": "CG33635", "induced reporter light, run 1, well a": 1.22e5, "induced reporter light, run 1, well b": 1.12e5, "control promoter light, run 1, well a": 1.57e5, "control promoter light, run 1, well b": 1.93e5, "uninduced reporter light, run 1, well a": 11420}

Targets listed so far whose gene name starts with C or c (5):
{"gene": "CG7997", "induced reporter light, run 1, well a": 1.21e5, "induced reporter light, run 1, well b": 1.13e5, "control promoter light, run 1, well a": 2.09e5, "control promoter light, run 1, well b": 1.98e5, "uninduced reporter light, run 1, well a": 8960}
{"gene": "CG7222", "induced reporter light, run 1, well a": 1.55e5, "induced reporter light, run 1, well b": 1.40e5, "control promoter light, run 1, well a": 1.33e5, "control promoter light, run 1, well b": 1.45e5, "uninduced reporter light, run 1, well a": 11665}
{"gene": "CG14708", "induced reporter light, run 1, well a": 1.64e5, "induced reporter light, run 1, well b": 1.56e5, "control promoter light, run 1, well a": 1.73e5, "control promoter light, run 1, well b": 1.53e5, "uninduced reporter light, run 1, well a": 7755}
{"gene": "CR33319", "induced reporter light, run 1, well a": 97115, "induced reporter light, run 1, well b": 92370, "control promoter light, run 1, well a": 93555, "control promoter light, run 1, well b": 1.28e5, "uninduced reporter light, run 1, well a": 10315}
{"gene": "CG33635", "induced reporter light, run 1, well a": 1.22e5, "induced reporter light, run 1, well b": 1.12e5, "control promoter light, run 1, well a": 1.57e5, "control promoter light, run 1, well b": 1.93e5, "uninduced reporter light, run 1, well a": 11420}
